Experiment: general procedure: peptide synthesis; 1-(3-dimethylaminopropyl)-3-ethylcarbodiimide with HOBt/ammonia or ammonium N-hy
Conditions: late stage modification step

Substance: human amylin
- step yield: about 16%
- step yield (by HPLC): greater than 95%
- step yield (monitored by HPLC, run 1): 15%
- step yield (monitored by HPLC, run 2): in excess of 15%
